Measurements: publication PMC10318456, “Selective inhibitors of the PSEN1–gamma-secretase complex” (The Journal of Biological Chemistry, 2023)
Some entries of the source have several records that differ or are many. This is not the full list of results. An entry can have further records. The records of an entry differ, and nothing given here explains why; some may be repeats, others may stem from another dose, organism or construct than stated.

Columns and labels:
[1] = system: PSEN1 versus PSEN2 γ-secretase complexes; assay: Comparison of the four MEF cell lines: selectivity between γ-secretase complexes (IC50 ratios); type: cell-based, human
[2] = biological target: PSEN1 L166A–APH1A γ-secretase complex (Homo sapiens, UniProt P49768, L166A); assay: Aβ40 secretion, MEF cell pool restored with PSEN1 L166A–APH1A; conditions: decimal comma

| Structure (SMILES) | selectivity toward the different γ-secretase complexes [1] | IC50 fold change to WT [2] |
| --- | --- | --- |
| CC(C)C[C@H](NC(=O)[C@H](Cc1ccccc1)C[C@@H](O)[C@H](Cc1ccccc1)NC(=O)OC(C)(C)C)C(=O)N[C@@H](Cc1ccccc1)C(=O)O (single isomer, unassigned) | < 10 fold and little or no selectivity | – |
| C[C@H](NC(=O)Cc1cc(F)cc(F)c1)C(=O)N[C@H](C(=O)OC(C)(C)C)c1ccccc1 [DAPT] | – | 8,122 fold and > 3 fold |
| CC(C)C[C@H](NC(=O)[C@H](Cc1ccccc1)C[C@@H](O)[C@H](Cc1ccccc1)NC(=O)OC(C)(C)C)C(=O)N[C@@H](Cc1ccccc1)C(N)=O [L-685,458] | < 10 fold and little or no selectivity | – |
